For test [1], the target named is T1, ADNP, endogenously tagged, in mouse embryonic stem cells (mouse (endogenous in mESC)) (UniProt Q9Z103).
T1 sequence: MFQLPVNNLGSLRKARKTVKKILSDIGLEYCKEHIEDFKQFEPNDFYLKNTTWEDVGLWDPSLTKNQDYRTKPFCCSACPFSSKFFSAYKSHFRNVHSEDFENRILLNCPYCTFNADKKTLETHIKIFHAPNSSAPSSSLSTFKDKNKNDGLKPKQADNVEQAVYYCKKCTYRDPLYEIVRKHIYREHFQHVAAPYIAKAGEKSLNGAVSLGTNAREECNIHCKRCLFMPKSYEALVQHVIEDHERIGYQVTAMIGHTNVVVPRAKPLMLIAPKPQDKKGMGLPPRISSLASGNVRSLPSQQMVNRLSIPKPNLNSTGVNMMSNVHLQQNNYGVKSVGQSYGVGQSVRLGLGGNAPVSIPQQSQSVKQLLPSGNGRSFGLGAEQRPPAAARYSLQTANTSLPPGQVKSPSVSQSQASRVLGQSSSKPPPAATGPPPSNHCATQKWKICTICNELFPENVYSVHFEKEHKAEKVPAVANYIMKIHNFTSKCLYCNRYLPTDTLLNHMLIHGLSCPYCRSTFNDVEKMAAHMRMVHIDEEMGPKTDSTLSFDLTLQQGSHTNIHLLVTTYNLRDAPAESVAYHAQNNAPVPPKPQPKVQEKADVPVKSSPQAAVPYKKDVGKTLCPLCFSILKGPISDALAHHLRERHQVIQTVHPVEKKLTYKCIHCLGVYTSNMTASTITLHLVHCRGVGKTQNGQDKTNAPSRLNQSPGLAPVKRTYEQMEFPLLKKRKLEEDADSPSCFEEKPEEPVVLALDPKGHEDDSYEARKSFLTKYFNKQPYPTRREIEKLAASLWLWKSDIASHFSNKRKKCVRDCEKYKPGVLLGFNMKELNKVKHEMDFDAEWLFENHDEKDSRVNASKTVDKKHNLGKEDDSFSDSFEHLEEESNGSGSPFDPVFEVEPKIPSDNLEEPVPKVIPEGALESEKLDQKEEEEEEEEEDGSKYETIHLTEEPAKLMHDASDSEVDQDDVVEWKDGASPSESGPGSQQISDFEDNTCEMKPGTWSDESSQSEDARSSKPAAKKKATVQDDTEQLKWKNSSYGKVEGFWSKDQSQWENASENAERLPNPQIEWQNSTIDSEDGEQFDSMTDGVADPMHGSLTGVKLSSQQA
Put plainly: affinity purification with mass spectrometry.

Protein sequences, listed by entry. Tags and fused reporters are not part of them.
UniProt Q8K284: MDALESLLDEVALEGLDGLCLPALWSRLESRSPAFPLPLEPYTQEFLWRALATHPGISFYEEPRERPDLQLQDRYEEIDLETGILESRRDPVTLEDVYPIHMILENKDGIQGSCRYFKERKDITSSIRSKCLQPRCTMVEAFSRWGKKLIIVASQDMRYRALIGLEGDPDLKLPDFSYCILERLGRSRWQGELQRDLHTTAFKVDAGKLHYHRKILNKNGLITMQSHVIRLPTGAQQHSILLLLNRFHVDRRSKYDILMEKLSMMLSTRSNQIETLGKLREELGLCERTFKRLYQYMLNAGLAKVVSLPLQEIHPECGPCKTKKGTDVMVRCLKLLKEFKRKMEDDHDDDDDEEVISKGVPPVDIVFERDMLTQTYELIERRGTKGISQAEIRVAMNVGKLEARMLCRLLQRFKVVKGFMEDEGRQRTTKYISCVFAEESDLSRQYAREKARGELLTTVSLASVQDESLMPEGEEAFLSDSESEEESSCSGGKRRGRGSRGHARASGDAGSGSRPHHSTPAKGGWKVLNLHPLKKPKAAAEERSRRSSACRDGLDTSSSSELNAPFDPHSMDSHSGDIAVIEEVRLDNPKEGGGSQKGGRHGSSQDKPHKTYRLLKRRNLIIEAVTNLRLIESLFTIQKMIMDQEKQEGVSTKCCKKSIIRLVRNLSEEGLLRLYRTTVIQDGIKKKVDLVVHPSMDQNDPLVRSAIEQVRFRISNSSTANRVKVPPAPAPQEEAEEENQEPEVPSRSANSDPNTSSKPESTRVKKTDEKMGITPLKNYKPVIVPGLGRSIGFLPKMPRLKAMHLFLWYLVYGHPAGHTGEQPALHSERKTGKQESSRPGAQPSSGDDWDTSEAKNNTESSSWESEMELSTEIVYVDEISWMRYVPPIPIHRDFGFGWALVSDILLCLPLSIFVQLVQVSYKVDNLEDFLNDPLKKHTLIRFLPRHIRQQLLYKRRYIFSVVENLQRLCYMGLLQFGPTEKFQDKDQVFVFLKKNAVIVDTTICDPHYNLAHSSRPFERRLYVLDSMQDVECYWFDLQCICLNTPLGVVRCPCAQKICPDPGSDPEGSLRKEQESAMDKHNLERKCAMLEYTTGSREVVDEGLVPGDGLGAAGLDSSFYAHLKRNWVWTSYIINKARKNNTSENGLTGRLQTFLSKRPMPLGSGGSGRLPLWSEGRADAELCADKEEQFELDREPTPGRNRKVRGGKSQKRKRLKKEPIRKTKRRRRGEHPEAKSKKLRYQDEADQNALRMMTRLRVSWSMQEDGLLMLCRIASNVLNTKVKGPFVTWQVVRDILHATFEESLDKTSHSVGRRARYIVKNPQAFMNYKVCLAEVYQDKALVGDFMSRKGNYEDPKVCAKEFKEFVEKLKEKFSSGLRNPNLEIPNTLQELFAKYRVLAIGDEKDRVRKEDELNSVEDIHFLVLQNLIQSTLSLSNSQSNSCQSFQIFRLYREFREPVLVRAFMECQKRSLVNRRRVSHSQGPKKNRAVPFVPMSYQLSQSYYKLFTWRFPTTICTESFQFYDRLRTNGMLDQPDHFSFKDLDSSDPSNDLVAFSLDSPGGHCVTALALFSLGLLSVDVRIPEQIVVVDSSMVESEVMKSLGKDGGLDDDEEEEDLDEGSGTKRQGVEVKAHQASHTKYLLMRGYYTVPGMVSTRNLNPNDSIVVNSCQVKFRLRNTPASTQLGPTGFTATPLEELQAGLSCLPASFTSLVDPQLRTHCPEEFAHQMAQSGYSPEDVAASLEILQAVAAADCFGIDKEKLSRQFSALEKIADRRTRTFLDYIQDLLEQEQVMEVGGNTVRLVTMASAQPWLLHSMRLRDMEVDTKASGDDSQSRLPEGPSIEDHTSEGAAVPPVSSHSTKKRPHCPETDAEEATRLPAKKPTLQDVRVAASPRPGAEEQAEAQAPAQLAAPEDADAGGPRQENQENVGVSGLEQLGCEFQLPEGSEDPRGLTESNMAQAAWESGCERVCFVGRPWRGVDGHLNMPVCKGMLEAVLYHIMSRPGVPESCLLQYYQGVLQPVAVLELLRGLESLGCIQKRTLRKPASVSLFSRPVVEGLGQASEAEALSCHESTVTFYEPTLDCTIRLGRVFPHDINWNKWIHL

The target of test [2] is GTF3C1, endogenously tagged, in mouse embryonic stem cells (mouse (endogenous in mESC)) (UniProt Q8K284). Briefly: affinity purification with mass spectrometry.

Results are given in words; binding and its absence hold for the method and conditions named. Binding seen in cells or lysates may run through a third protein. A yes stands for co-enrichment or nearness to the bait. Other partners may have been found. For some of these results: Where a sequence is shown, tags or fusion partners need not be part of it.

Consider “GTF3C1, endogenous, in mouse embryonic stem cells (from UniProt Q8K284 1-2101)”, for which, in test [1], the binding result is reported as “binds”.

B1: GTF3C2, endogenous, in mouse embryonic stem cells (protein, UniProt Q8BL74 1-907)
chain: MDTCGVGYVALGEADPVGSMIVVDSPGQEELSQLDVKASETSGVEASIEMSLPPPLPGFEDSSDRRLPPDQESLTRLEQQDLSSEMSKVSNTRASKPSGRRGGRTARGAKRPQQRKPPSTPLVPGLLDQSNPLSTPMPKKRSQKSKGDLLLLKLSKGLDQPESPHPKRPPEDFETPSGERPRRRAAQVALLYLQELAEELSTALPAPPLSGPKSPKVSSPTKPKKTRQASSQGEEDGSARDEDFVLQVEGEDEEESEAPSENSSDPEPVAPRSTPRGPAAGKQKPHCRGMAPNGLPNYIMAPVWKCLHLTKDLREQHHSFWEFAEWIPVAWKWQLLSELEAAPYLPQEEKSPLFSVQREGIPEDGTIYRINRFSSITAHPERWDVSFFTGGPLWALDWCPVPEGSAASQYVALFSSPDMNETHPLSQLHSGPGLLQLWGLGTLQQESCPGNRAHFVYGIACDSGCIWDLKFCPSGAWEHPETLRKAPLLPRLGLLALACSDGKVLLFSLPHPEALLAQQPPDAMKPAIYKVQCLATLQVGSVQASDPSECGQCLSLAWMPTRPHHHLAAGYYNGMVVFWNLPTNSPLQRIRLSDGSLKLYPFQCFLAHDQAVRTIQWCKANSHFLVSAGSDRKIKFWDLRRPYEPINCIKRFLSTELSWLLPYNGVTVAQDNCYASYGLCGIHYIDAGYLGFKAYFTAPRKGTVWSLSGSDWLGTVAAGDISGELIAAILPDMASNPINVKKPAERRFPIYKADLIPYQDSPEDQDYSSTSSETPNPPKARTYTETINHHYLLFQDTDLSSFHNLLRREPMLRMQEGEGHSQLCLDRLQLEAIHKVRFSPNLDSYGWLVSGGQSGLVRIHFVRGLTSPLAHRVQLESRANFNAMFQPSFPTEGPGFSPSSHCLLPNP
In the case of B1, in test [1], the binding entry is on record as “binds”.

B2: GTF3C4, endogenous, in mouse embryonic stem cells (protein, UniProt Q8BMQ2 1-817)
chain: MSEADQALVGPKADEPSPPAEEKDEGGGKEAAADAAPGPSASFRLMVTRREPAVKLQYAVSGLEPLSWSEDHRVSVSTARSVAVLELICDVHNPGQDLVIHRTSVPAPLNSCLLKVGSKTEVAECKEKFASSKDPTISQTFMLDRMFNPEGKALPPMRGFKYTSWSPMGCDANGRCLLAALTMDNRLTVQVNLNRLQWVQLVDLTEIYGDRLYETSYRLSKNEAPEGNLGDFAEFQRRHSMQTPVRMEWSSICTTQQVKHNNECRDVSSVLLAVLFENGNIAVWQFQLPFVGKESISSCNTIESGISSPSVLFWWEYEHNNRKMSGLIVGSAFGPVKILPVNLKAVKGYFTLRQPVVLWKEMDKLPVHSIKCVPLYHPYQKCSCSLVVAARGSYVFWCLLLISKAGLNVHNSHVTGLHSLPIVSITADKQNGTVYTCSSDGKVRQLIPIFTDVALKFEHQLIKLSDVFGSVRTHGIAVSPCGAYLAIITTEGMMNGLHPVNKNYQVQFVTLKTFEEAAAQLLESSVQNLFKQVDLIDLVRWKILKDKHIPQFLHEALEKKIESSGVTYFWRFKLFLLRILYQSMQKSPSEALWKPTHEDSKILLVDSPGMGDGEDEQQEEGTSKQGTKAGLQEKSKEGDTEETPEDSLTAGGDTGGREPVEEKLLEIQGKIEAVEMHLTREHMKRVLGEVYLHTWITENTSIPTRGLCNFLMSDEDYDDRTAQVLIGHISKKMNKQTFPERCSLCKEILPFTDRKQAVCSNGHIWLRCFLTYQSCQSLIYRRCLLHDSIARHPVPEDPDWIKRLLQSPCPFCDSPVF
On to B2, for which the binding result in test [2] and in test [1] was “binds” throughout.

B3: GTF3C6, endogenous, in mouse embryonic stem cells (protein, UniProt Q9D8P7 1-227)
chain: MASPNAMAAAVDPIWEDLEEEEEELEEEQFVLVELSGIIDSDFLSKCENKCKILGIDTERPIMQVDSYVFAGEYEDTLGTCVIFEEGVERVDPEGTDKTVLKYKCHTMKKLSMTRTLLTEKKEGEENIDGVEWLQMKDNDFSYRPNMICSFLHEHEDEAAGPASDKPVELEDQESQMKGSAEQTQEQEKVEHSEVEDPAPSGETPSEMESSVFMGTQDGNVSQNNQS
Regarding B3, the binding result in test [2] and in test [1] was “binds” each time.

B4: GTF3C5, endogenous, in mouse embryonic stem cells (protein, UniProt Q8R2T8 1-520)
chain: MAAAEPDADPKAAIPVDLRRERRLVCVEYPGVVRNEAKMLQTLGGEESVSRIYTDPTKRLELYFRPKDPYCHPVCANRFSTSSLLLRIRKRTRRRRGVLGDEAHPQVTFNLEIIGIISTIYKFQGMSDFQYLAVHTEAGGKHVSMYDRVLMRKPEKEEFFHQELPLYIPPPIFSRLDTPVDYFYRPETQHREGYHNPTISGENLIGLSRARRPHNAIFVNFEDTEVPEQPLEAAVQTWKKACTNPIDQKVEEELRKLFDIRPVWSRNAVKSNVSVHPDKLKILLPYMAYYMITGPWRSLWIRFGYDPRKHPDAKIYQVLDFRIRCGMKYGYGSRDMPVKAKRSTYNYSLPITVKKTSNQPGTMHDLKQGLGPSGTDGPRKLTYNKYKLKDSVYIFREGALPPYRQMFYQLCDLNVEELQKIVHRNDGTETVCTERDGWCLPKTTDHLRDTMSLMILQTIRSERPALFSNTGKADRGKEQLMFESGEEEEEEEEEEEEEEEDFKPSDGSENEMETEILDYV
In the case of B4, the binding entry in test [2] and in test [1] was “binds” throughout.

B5: GTF3C3, endogenous, in mouse embryonic stem cells (protein, UniProt Q3TMP1 1-882)
chain: MSGFSPELIDYLEGKISFEEFERRREERKTREKKSVQEKGKSSPKENPDDSEVPSSSGIDSAKSQDKDANEGETSDGVSKSVHKVFASMLGETEDDEEEEEEEEEEETAEQPTAGDVFVLEMVLNRETKKMMKEKRPRSKLPRALRGLMGEANIRFARGEHEEAILMCMEIIRQAPLAYEPFSTLAMIYEDQGDMEKSLQFELIAAHLNPSDTEEWVRLAEMSLEQDNIKQAIFCYTKALKYEPTNVRYLWERSSLYEQMGDHKMAMDGYRRILNLLSPSDGERFMQLARDMAKSYYEANDSASAINIIEEAFSKHQGLVSMEDVNIAAELYISNKQYDKALEVITDFSGIILEKETLEEGTSEENKAAETVTCSIPDSVPIDITVKLMVCLVHLNILEPLNPLLTTLVEQNPEDMGDLYLDVAEAFLDVGEYNSALPLLSALVCSERYNLAVVWLRHAECLKALGYMERAAESYSKVVDLAPLHLDARISLSILQQQLGRPEKALEALEPMYDPDTLAQDANAAQQELKLLLHRSTLLFSQGKMYGYLDTLLTMLAMLLKVAMNRAQVCLISSSKSGERHLYLIKVSRDKISDNNEQETSNYDAKAIFAVLTSVLPKEDWWNLLLKAIYTLSDLARFQEAELLVDSSLEYYSFYDDRQKRKELEYFGLSAAILDKNFRKAYDYIRVMVMENVNKPQLWNIFNQVTMHSQDVRHHRFCLRLMLKNPDNHALCVLNGHNAFVSGSFKHALGQYVQAFRAYPSEPLYNLCIGLTFIHMASQKYVLKRHALTVQGFSFLNRYLSIRGPCQESFYNLGRGLHQLGLTHLAIHYYQKALALPPLVVEGIEVDQLDLRRDIAYNMSLIYQSSGNTAMAQKLLYTYCVI
Turning to B5, the binding entry in test [2] and in test [1] was “binds” throughout.
